This passage reports binding results from PMC5105168.

Sequences of proteins named here, by UniProt entry; tags and fusion partners are left off. A change or cut given only in a name is not applied to a line headed by its entry. A line that says so, or that is headed by a name, gives the form on record, which may keep a tag or linker. Residues count along the entry.
UniProt O43823: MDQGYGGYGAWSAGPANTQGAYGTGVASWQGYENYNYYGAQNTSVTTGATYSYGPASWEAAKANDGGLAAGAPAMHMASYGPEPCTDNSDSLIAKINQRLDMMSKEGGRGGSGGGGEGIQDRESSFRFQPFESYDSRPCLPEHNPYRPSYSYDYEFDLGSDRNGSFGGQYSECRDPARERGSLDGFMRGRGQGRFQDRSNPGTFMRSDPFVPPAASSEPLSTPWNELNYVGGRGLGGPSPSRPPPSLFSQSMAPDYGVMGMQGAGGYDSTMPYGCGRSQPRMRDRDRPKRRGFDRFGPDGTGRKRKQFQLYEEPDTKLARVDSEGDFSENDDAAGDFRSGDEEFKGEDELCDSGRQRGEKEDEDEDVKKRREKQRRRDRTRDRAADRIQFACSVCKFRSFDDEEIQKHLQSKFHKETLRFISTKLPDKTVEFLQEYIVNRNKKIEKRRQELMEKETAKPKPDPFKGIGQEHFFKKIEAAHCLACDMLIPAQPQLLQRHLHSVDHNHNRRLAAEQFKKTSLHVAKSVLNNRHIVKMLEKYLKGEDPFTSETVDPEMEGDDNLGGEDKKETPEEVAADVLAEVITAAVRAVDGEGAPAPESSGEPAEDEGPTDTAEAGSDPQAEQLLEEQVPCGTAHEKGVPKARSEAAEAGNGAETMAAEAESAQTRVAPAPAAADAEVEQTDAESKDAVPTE
FLAG-HA-tagged AKAP95 (101–692): residues 101-692 of O43823

These are yes or no findings as the source states them, for the method shown. In cells and extracts the contact can be indirect. These calls come from enrichment with a bait or labelling near it, and not all partners need be listed. For some assays here: No binding means not detected with the bait.

Assay [1] concerns the target FLAG-HA-tagged AKAP95 (101–692) (human) (UniProt O43823). Nature of the assay: affinity purification with mass spectrometry; nuclear extracts of Flp-In-293 stable lines on anti-FLAG M2 agarose, BC300 with 0.1% NP40, 4 °C, 6 h; FLAG peptide elution, SDS-PAGE, MALDI mass spectrometry; proteins found with control cells excluded.
Assay [2] has as its target FLAG-HA-tagged full-length human AKAP95 (human) (UniProt O43823). The assay is described as above.

B1: ZNF326 (endogenous) (protein, UniProt Q5BKZ1 1-582)
chain: MDFEDDYTHSACRNTYQGFNGMDRDYGPGSYGGMDRDYGHGSYGGQRSMDSYLNQSYGMDNHSGGGGGSRFGPYESYDSRSSLGGRDLYRSGYGFNEPEQSRFGGSYGGRFESSYRNSLDSFGGRNQGGSSWEAPYSRSKLRPGFMEDRGRENYSSYSSFSSPHMKPAPVGSRGRGTPAYPESTFGSRNYDAFGGPSTGRGRGRGHMGDFGSIHRPGIVVDYQNKSTNVTVAAARGIKRKMMQPFNKPSGTFIKKPKLAKPMEKISLSKSPTKTDPKNEEEEKRRIEARREKQRRRREKNSEKYGDGYRMAFTCSFCKFRTFEEKDIELHLESSSHQETLDHIQKQTKFDKVVMEFLHECMVNKFKKTSIRKQQTNNQTEVVKIIEKDVMEGVTVDDHMMKVETVHCSACSVYIPALHSSVQQHLKSPDHIKGKQAYKEQIKRESVLTATSILNNPIVKARYERFVKGENPFEIQDHSQDQQIEGDEEDEEKIDEPIEEEEDEDEEEEAEEVGEVEEVEEVEEVREGGIEGEGNIQGVGEGGEVGVVGEVEGVGEVEEVEELEEETAKEEPADFPVEQPEEN
For the molecule B1, the binding result was “no binding” in assay [1] and “binds” in assay [2].

B2: SFRS2 (endogenous) (protein, UniProt Q01130 1-221)
chain: MSYGRPPPDVEGMTSLKVDNLTYRTSPDTLRRVFEKYGRVGDVYIPRDRYTKESRGFAFVRFHDKRDAEDAMDAMDGAVLDGRELRVQMARYGRPPDSHHSRRGPPPRRYGGGGYGRRSRSPRRRRRSRSRSRSRSRSRSRSRYSRSKSRSRTRSRSRSTSKSRSARRSKSKSSSVSRSRSRSRSRSRSRSPPPVSKRESKSRSRSKSPPKSPEEEGAVSS
Consider B2, for which the binding result is recorded as “no binding” in assay [1] and “binds” in assay [2].

B3: NHN1 (endogenous) (protein, UniProt Q86VM9 1-953)
chain: MDVAESPERDPHSPEDEEQPQGLSDDDILRDSGSDQDLDGAGVRASDLEDEESAARGPSQEEEDNHSDEEDRASEPKSQDQDSEVNELSRGPTSSPCEEEGDEGEEDRTSDLRDEASSVTRELDEHELDYDEEVPEEPAPAVQEDEAEKAGAEDDEEKGEGTPREEGKAGVQSVGEKESLEAAKEKKKEDDDGEIDDGEIDDDDLEEGEVKDPSDRKVRPRPTCRFFMKGNCTWGMNCRFIHPGVNDKGNYSLITKADPFPPNGAPPLGPHPLMPANPWGGPVVDEILPPPPPEPPTESAWERGLRHAKEVLKKATIRKEQEPDFEEKRFTVTIGEDEREFDKENEVFRDWNSRIPRDVRDTVLEPYADPYYDYEIERFWRGGQYENFRVQYTETEPYHNYRERERERERENRQRERERERERDRERERRQRERERERERERDKERQRRKEEWERERAKRDEKDRQHRDRDREKEREKEKGKPKPRSPQPPSRQAEPPKKEAATTGPQVKRADEWKDPWRRSKSPKKKLGVSVSPSRARRRRKTSASSASASNSSRSSSRSSSYSGSGSSRSRSRSSSYSSYSSRSSRHSSFSGSRSRSRSFSSSPSPSPTPSPHRPSIRTKGEPAPPPGKAGEKSVKKPAPPPAPPQATKTTAPVPEPTKPGDPREARRKERPARTPPRRRTLSGSGSGSGSSYSGSSSRSRSLSVSSVSSVSSATSSSSSAHSVDSEDMYADLASPVSSASSRSPAPAQTRKEKGKSKKEDGVKEEKRKRDSSTQPPKSAKPPAGGKSSQQPSTPQQAPPGQPQQGTFVAHKEIKLTLLNKAADKGSRKRYEPSDKDRQSPPPAKRPNTSPDRGSRDRKSGGRLGSPKPERQRGQNSKAPAAPADRKRQLSPQSKSSSKVTSVPGKASDPGAASTKSGKASTLSRREELLKQLKAVEDAIARKRAKIPGKA
Turning to B3, the binding result in assay [1] is on record as “no binding”; in assay [2] it was “binds”.

B4: HA95 (endogenous) (protein, UniProt Q9ULX6 1-646)
chain: MSYTGFVQGSETTLQSTYSDTSAQPTCDYGYGTWNSGTNRGYEGYGYGYGYGQDNTTNYGYGMATSHSWEMPSSDTNANTSASGSASADSVLSRINQRLDMVPHLETDMMQGGVYGSGGERYDSYESCDSRAVLSERDLYRSGYDYSELDPEMEMAYEGQYDAYRDQFRMRGNDTFGPRAQGWARDARSGRPMASGYGRMWEDPMGARGQCMSGASRLPSLFSQNIIPEYGMFQGMRGGGAFPGGSRFGFGFGNGMKQMRRTWKTWTTADFRTKKKKRKQGGSPDEPDSKATRTDCSDNSDSDNDEGTEGEATEGLEGTEAVEKGSRVDGEDEEGKEDGREEGKEDPEKGALTTQDENGQTKRKLQAGKKSQDKQKKRQRDRMVERIQFVCSLCKYRTFYEDEMASHLDSKFHKEHFKYVGTKLPKQTADFLQEYVTNKTKKTEELRKTVEDLDGLIQQIYRDQDLTQEIAMEHFVKKVEAAHCAACDLFIPMQFGIIQKHLKTMDHNRNRRLMMEQSKKSSLMVARSILNNKLISKKLERYLKGENPFTDSPEEEKEQEEAEGGALDEGAQGEAAGISEGAEGVPAQPPVPPEPAPGAVSPPPPPPPEEEEEGAVPLLGGALQRQIRGIPGLDVEDDEEGGGGAP
In the case of B4, the binding result in assay [1] is on record as “no binding”; in assay [2], “binds”.

B5: hnRNP M (endogenous) (protein, UniProt P52272 1-730)
chain: MAAGVEAAAEVAATEIKMEEESGAPGVPSGNGAPGPKGEGERPAQNEKRKEKNIKRGGNRFEPYANPTKRYRAFITNIPFDVKWQSLKDLVKEKVGEVTYVELLMDAEGKSRGCAVVEFKMEESMKKAAEVLNKHSLSGRPLKVKEDPDGEHARRAMQKVMATTGGMGMGPGGPGMITIPPSILNNPNIPNEIIHALQAGRLGSTVFVANLDYKVGWKKLKEVFSMAGVVVRADILEDKDGKSRGIGTVTFEQSIEAVQAISMFNGQLLFDRPMHVKMDERALPKGDFFPPERPQQLPHGLGGIGMGLGPGGQPIDANHLNKGIGMGNIGPAGMGMEGIGFGINKMGGMEGPFGGGMENMGRFGSGMNMGRINEILSNALKRGEIIAKQGGGGGGGSVPGIERMGPGIDRLGGAGMERMGAGLGHGMDRVGSEIERMGLVMDRMGSVERMGSGIERMGPLGLDHMASSIERMGQTMERIGSGVERMGAGMGFGLERMAAPIDRVGQTIERMGSGVERMGPAIERMGLSMERMVPAGMGAGLERMGPVMDRMATGLERMGANNLERMGLERMGANSLERMGLERMGANSLERMGPAMGPALGAGIERMGLAMGGGGGASFDRAIEMERGNFGGSFAGSFGGAGGHAPGVARKACQIFVRNLPFDFTWKMLKDKFNECGHVLYADIKMENGKSKGCGVVKFESPEVAERACRMMNGMKLSGREIDVRIDRNA
B5: the binding result in assay [2] was “binds”.

B6: RBM14 (endogenous) (protein, UniProt Q96PK6 1-669)
chain: MKIFVGNVDGADTTPEELAALFAPYGTVMSCAVMKQFAFVHMRENAGALRAIEALHGHELRPGRALVVEMSRPRPLNTWKIFVGNVSAACTSQELRSLFERRGRVIECDVVKDYAFVHMEKEADAKAAIAQLNGKEVKGKRINVELSTKGQKKGPGLAVQSGDKTKKPGAGDTAFPGTGGFSATFDYQQAFGNSTGGFDGQARQPTPPFFGRDRSPLRRSPPRASYVAPLTAQPATYRAQPSVSLGAAYRAQPSASLGVGYRTQPMTAQAASYRAQPSVSLGAPYRGQLASPSSQSAAASSLGPYGGAQPSASALSSYGGQAAAASSLNSYGAQGSSLASYGNQPSSYGAQAASSYGVRAAASSYNTQGAASSLGSYGAQAASYGAQSAASSLAYGAQAASYNAQPSASYNAQSAPYAAQQAASYSSQPAAYVAQPATAAAYASQPAAYAAQATTPMAGSYGAQPVVQTQLNSYGAQASMGLSGSYGAQSAAAATGSYGAAAAYGAQPSATLAAPYRTQSSASLAASYAAQQHPQAAASYRGQPGNAYDGAGQPSAAYLSMSQGAVANANSTPPPYERTRLSPPRASYDDPYKKAVAMSKRYGSDRRLAELSDYRRLSESQLSFRRSPTKSSLDYRRLPDAHSDYARYSGSYNDYLRAAQMHSGYQRRM
For the molecule B6, the binding entry in assay [1] was “no binding”; in assay [2] it was “binds”.
